## Library screen at single concentrations

Sequences of proteins named here, by UniProt entry; tags and fusion partners are left off.
UniProt P9WPC5, whole entry: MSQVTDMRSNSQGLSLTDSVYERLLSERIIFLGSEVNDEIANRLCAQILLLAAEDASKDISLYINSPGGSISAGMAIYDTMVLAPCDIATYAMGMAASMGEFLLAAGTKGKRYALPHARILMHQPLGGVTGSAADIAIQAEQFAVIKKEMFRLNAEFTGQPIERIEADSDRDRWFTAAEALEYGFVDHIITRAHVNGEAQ
UniProt P9WPC3, whole entry partner: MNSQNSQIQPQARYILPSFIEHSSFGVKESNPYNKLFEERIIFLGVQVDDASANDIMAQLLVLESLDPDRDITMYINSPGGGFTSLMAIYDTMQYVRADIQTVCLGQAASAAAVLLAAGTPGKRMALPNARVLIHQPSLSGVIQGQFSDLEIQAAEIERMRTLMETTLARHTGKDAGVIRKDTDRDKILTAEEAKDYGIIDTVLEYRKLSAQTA
UniProt P9WFT3, whole entry: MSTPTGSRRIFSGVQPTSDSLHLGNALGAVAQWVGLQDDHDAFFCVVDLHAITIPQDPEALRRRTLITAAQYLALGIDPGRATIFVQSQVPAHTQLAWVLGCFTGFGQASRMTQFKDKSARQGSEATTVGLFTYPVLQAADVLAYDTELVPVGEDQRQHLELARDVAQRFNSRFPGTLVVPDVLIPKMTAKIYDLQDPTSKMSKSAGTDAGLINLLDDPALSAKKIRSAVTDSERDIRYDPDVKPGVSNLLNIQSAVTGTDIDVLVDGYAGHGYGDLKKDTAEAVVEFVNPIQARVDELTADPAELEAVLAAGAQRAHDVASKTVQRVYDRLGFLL
UniProt P9WNZ1, whole entry: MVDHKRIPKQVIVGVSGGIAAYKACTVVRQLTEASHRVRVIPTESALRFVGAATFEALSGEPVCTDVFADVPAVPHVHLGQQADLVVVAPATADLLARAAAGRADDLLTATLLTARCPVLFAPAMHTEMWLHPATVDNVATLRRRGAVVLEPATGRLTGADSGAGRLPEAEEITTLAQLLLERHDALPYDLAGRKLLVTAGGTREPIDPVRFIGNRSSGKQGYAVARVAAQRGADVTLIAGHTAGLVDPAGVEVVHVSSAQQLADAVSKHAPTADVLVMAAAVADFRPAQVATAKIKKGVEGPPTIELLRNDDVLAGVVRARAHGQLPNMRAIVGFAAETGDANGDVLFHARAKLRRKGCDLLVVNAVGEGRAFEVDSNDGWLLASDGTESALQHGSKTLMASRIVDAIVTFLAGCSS

Source: ChEMBL document CHEMBL3988442, “University of Dundee, Small-Polar-MMV Screening Library” (2021).

ClpP1P2: 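Protease assay of ClpP1P2, read by the AMC dye that it sets free. Target: ClpP1P2, Mycobacterium tuberculosis (UniProt P9WPC5 and UniProt P9WPC3). Compounds at 50 µM. Higher reads as stronger inhibition, judged from the few compounds that gave an IC50. Most other retested compounds had strongly negative values. About 69,000 compounds were tested under these conditions; 0.015% (about 10) showed 50% or more at least once.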
Toxoplasma: 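Assay of Toxoplasma gondii numbers, read through their beta-galactosidase reporter with a colour substrate. Compounds at 10 µM. Higher reads as fewer parasites (inferred from which compounds were picked for retests). About 67,000 compounds were tested under these conditions; 0.38% (about 260) showed 50% or more at least once.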
MtTrpRS: 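Enzyme assay of tryptophanyl-tRNA synthetase; the read-out is not stated. Target: Tryptophan-tRNA ligase, Mycobacterium tuberculosis (UniProt P9WFT3). Concentration: 10 µM. Higher most likely means stronger inhibition; the record gives no direction and few retests gave an IC50. About 65,000 compounds were tested under these conditions; 0.098% (about 64) showed 50% or more at least once.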
CoaBC: 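Enzyme assay of CoaBC with a phosphate dye (Biomol Green) read at 650 nm. Target: Coenzyme A biosynthesis protein CoaBC, Mycobacterium tuberculosis (UniProt P9WNZ1). Concentration: 30 µM. Higher reads as stronger inhibition, judged from the few compounds that gave an IC50. Most strong results did not repeat in a second test. Size under these conditions: about 67,000 compounds, about 40 of them at 50% or above in at least one test.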

The filed quantity is “Percent Effect” (%). How 0% and 100% were set is not recorded. Most values in the screen are low, and negative values occur. Compounds were drawn at random from those tested, without regard to their results. A dash means the value is not listed here; it may have been measured.

Compound	ClpP1P2	Toxoplasma	MtTrpRS	CoaBC
CC1CCN(c2cc(-n3cnc(C(=O)N4CCSCC4)c3)ncn2)CC1	-3.029	9.095	3.597	6.367
O=C(NCC1CCS(=O)(=O)C1)N(Cc1ccncc1)C1CC1 (centres undefined)	-4.284	6.272	0.2681	9.344
O=C(O)C(F)(F)F.O=C(O)C(F)(F)F.c1ccc(CN2CCn3c(Cn4cncn4)cnc3C2)nc1	-	-52.39	-	-
CN(C)C(=O)CNC(CC(F)(F)F)c1ccc(F)cc1 (centres undefined)	3.477	4.779	-0.000009	0.6483
CCC(CC)n1ncc(C(=O)NS(=O)(=O)c2ccsc2)c1C	-18.22	13.67	-0.552	7.152
CCOc1cncc(N2CCN(c3ccccc3F)CC2)n1	-2.447	-0.1136	-8.357	4.669
O=C(Nc1ccccc1OCCc1ccccn1)N1CC[C@@H](O)C1	-9.701	-11.87	-0.153	0.8783
Cc1nc(C)n(C2CCCN(C(=O)Cc3cn4ccccc4n3)C2)n1 (centres undefined)	-13.63	19.67	-5.281	-13.14
O=C(O)C(F)(F)F.[H][C@@]12CCCO[C@]1([H])[C@H](OCC)CN2S(=O)(=O)c1cn(C)cn1	-	-5.552	-	-
CC(C)NC(=O)CCNC(=O)c1cc(F)ccc1NS(C)(=O)=O	12.33	18.36	3.931	-5.492
O=C(CCCN1CCCCC1)NC(C(=O)O)c1cccc(F)c1 (centres undefined)	-13.08	-28.1	0.9524	0.1258
CCc1ccc(CN2CCC3(CCCN(C(=O)c4cnccn4)C3)C2)o1.O=C(O)C(F)(F)F (centres undefined)	-	-5.127	-	-
CCn1c(-c2ccccc2)nn(CC(=O)NCCc2c[nH]cn2)c1=O	14.04	1.323	-1.926	-10.4
Cc1csc(C(C)(C)NCC(=O)N(C)Cc2ccc(C)o2)n1	7.554	8.234	3.028	3.883
Cc1ccc(N2CCC3(CCC(=O)N3)CC2)nn1	-7.836	-3.83	-4.639	-
CCS(=O)(=O)N1CCOC2(CCCN(Cc3ccccn3)C2)C1 (centres undefined)	-2.451	-	-	3.171
CN(C)CCC1CCN(Cc2ccn(C)c(=O)c2)CC1	2.034	-2.638	3.35	-9.115
Cc1ccc(CC(=O)N2CCCCC2Cn2cccn2)cn1 (centres undefined)	-11.36	12.27	0.53	6.624
CCn1cc2c(n1)C(COC)CN(c1ccc(C)nn1)C2.O=C(O)C(F)(F)F.O=C(O)C(F)(F)F (centres undefined)	-	-12.99	-	-
O=C(c1cccnc1)N1CCOC(c2ccc(-c3cncnc3)cn2)C1 (centres undefined)	12.55	-13.06	-	6.127
O=S1(=O)NCC2(CCCN(Cc3ccccn3)C2)Oc2ncccc21 (centres undefined)	26.06	26.7	23.94	0.5263
Cc1ccc(CNC(=O)CN(CCC(N)=O)c2ccc(F)cc2)cc1	-3.18	-	2.412	6.683
CCN(CC1CCOC1)C(=O)Cn1nnn(-c2cccs2)c1=O (centres undefined)	-1.959	0.8582	12.45	-0.122
Cc1nc(CNC2CCc3ncnn3C2)oc1C (centres undefined)	0.1395	7.529	1.652	2.236
CCN(C(=O)CCOC)C(c1ccc(Cl)cc1)c1ccccn1 (centres undefined)	6.447	18.6	-0.8909	4.198
CN(C)c1ccc(CNC(=O)c2ccc(Cl)cc2F)cc1	-4.571	1.458	-0.5297	7.962
CNCc1ccc([C@@H]2CN(C)C[C@H]2C(N)=O)cc1.Cl	-	-26.64	-	-
CCC(CC)c1cc(CNC(=O)N2CCN(CC)CC2)on1	-3.704	-3.884	-2.375	3.004
COCCCC(=O)N(C)c1ccc(F)c(Cl)c1	-3.807	4.805	-0.6552	5.492
O=C(O)C(F)(F)F.O=C(O)C(F)(F)F.O=C(O)C(F)(F)F.[H][C@@]12CCN(Cc3cnn(C)c3)[C@@]1([H])CCN2Cc1cccc(C)n1	-	-2.112	-	-
Cc1nn(C)c2cnn(CC(=O)NCc3ccc4c(c3)OCO4)c12	-7.173	-32.79	-3.756	-5.543
CCc1nc(C(=O)N(C)CC(=O)N(C)C)nn1-c1ccccc1Cl	11.11	15.26	-4.534	-14.02
O=C1CO[C@H]2CN(Cc3ccc4c(c3)OCO4)C[C@H]2N1	-6.839	-	-0.8346	6.402
Cc1ccc(S(=O)(=O)NCCCN2CCC(O)CC2)c(F)c1	-13.17	-0.1092	2.577	6.456
CCOC[C@@H]1CCC[C@@]12CN(Cc1cccnc1)CCO2	-0.7728	-14.2	5.317	5.75
O=C(CN1CCCc2c(F)cc(Br)cc21)N1CCN(C(=O)C2CC2)CC1	-5.09	-1.006	0.8642	-0.2451
CCC(CO)NCc1ccc(-c2ccccc2)o1.Cl (centres undefined)	-	19.51	-	-
CC(=O)N1CC(=O)N(c2ccccc2)CC12CCN(Cc1cccs1)C2 (centres undefined)	6.755	-	4.302	3.426
Cc1cc(C)cc(NS(=O)(=O)c2cc3c(c(C(=O)O)c2)OCCO3)c1	4.853	2.643	6.335	1.567
C=C(C)CN1CCC(C(=O)c2cc(F)ccc2F)CC1	-1.035	-5.903	-6.671	3.827
Cc1nc(CN2CCOCC3(CCN(c4cccnc4)CC3)C2)cs1	6.737	-	3.377	6.832
CC(=O)CN1CCC2(CC1)c1ccccc1[C@@H](N1CCSCC1)[C@@H]2O	-7.287	-7.722	-2.886	-3.018
[H][C@]12CCCC[C@]1([H])N(C(=O)N1CCOCC1)CC[C@@]2(O)c1ccccc1	-	22.41	-	-
COCCN1CCC2(CC1)CN(C(=O)c1ccccc1)CCO2	-13.04	-	-3.779	0.9009
CCN1CCC2(CC1)C(=O)N(c1ccc(C)nc1)CCN2CC(C)C	3.237	-	-0.9709	-
CC1Cc2cc(-c3cncn3CC(=O)NC(C)(C)C)ccc2N1C (centres undefined)	-25.07	-	-4.235	4.079
O=C(c1c(F)cccc1F)N1CCC[C@@H]1Cn1c(=O)oc2ccccc21	-18.17	-9.556	-3.46	-2.421
O=C(C1CCN(c2cccnn2)C1)N1CCOCC1 (centres undefined)	7.947	-11.37	2.145	2.19
CCN1CCNC(=O)C12CCN(S(=O)(=O)c1ccc(F)cc1)CC2	0.0312	-18.84	1.374	3.308
Cc1ccc(Sc2ccc(N3CCC(C(=O)O)CC3)nn2)cc1	5.627	8.368	-1.656	0.6274
CCOC(=O)CC1CCCCN1C(=O)CCc1cc(Cl)no1 (centres undefined)	-9.155	13.9	0.5435	-0.6593
CC(NC(=O)c1cccs1)C(=O)NS(=O)(=O)Cc1ccc(C#N)cc1 (centres undefined)	-6.517	-3.123	2.84	2.451
CCc1nccn1C1CCCN(C(=O)c2ccc(NC3CC3)nc2)C1 (centres undefined)	-10.28	-3.281	-5.21	-3.169
Cc1ccccc1OCCC(=O)N1CCC(c2nncn2C)CC1	-26.82	4.824	-8.177	1.818
COCCN(CCOC)C(=O)c1ccc(Cn2nc(C)cc2C)cc1	-20.3	-10.09	-0.8675	2.384
O=C(c1ccncc1)N1CCCC1C1CCN(Cc2ccccc2)CC1 (centres undefined)	1.371	-12.08	-1.354	2.439
CN1CCCN(c2nc(C3CC3)ns2)CC1	-14.29	2.939	-3.211	-5.623
Cl.O=C(NCC1CCC2(CCNCC2)CO1)c1cnccn1 (centres undefined)	-	5.228	-	-
CCc1ccc(CNC(=O)CCNc2ncccn2)s1	6.033	4.011	0.9336	-4.519
Cc1cnn(C2(C(=O)O)CCN(c3ccnc4cc(Cl)ccc34)CC2)c1	-4.713	0.437	7.225	5.217
Cc1occc1C(=O)N1Cc2nccn2CC(CN2CCCC2)C1 (centres undefined)	7.281	-	-3.867	5.068

Some entries from above, unchanged:

Compound	ClpP1P2	Toxoplasma	MtTrpRS	CoaBC
O=C(CCCN1CCCCC1)NC(C(=O)O)c1cccc(F)c1 (centres undefined)	-13.08	-28.1	0.9524	0.1258
CCC(CO)NCc1ccc(-c2ccccc2)o1.Cl (centres undefined)	-	19.51	-	-
CN(C)c1ccc(CNC(=O)c2ccc(Cl)cc2F)cc1	-4.571	1.458	-0.5297	7.962
Cc1ccc(Sc2ccc(N3CCC(C(=O)O)CC3)nn2)cc1	5.627	8.368	-1.656	0.6274
CCOc1cncc(N2CCN(c3ccccc3F)CC2)n1	-2.447	-0.1136	-8.357	4.669
Cc1ccc(CC(=O)N2CCCCC2Cn2cccn2)cn1 (centres undefined)	-11.36	12.27	0.53	6.624